Results reported in doi:10.1101/393272.
Read-outs that look alike come from different tables or passages of the source. These are yes or no findings as the source states them, for the method shown. Binding calls can cover weak binding; strength is not graded here. For some assays here: Where a sequence is shown, tags or fusion partners need not be part of it. For some assays here: In cells and extracts the contact can be indirect.

Sequences of proteins named here, by UniProt entry; tags and fusion partners are left off. A change or cut given only in a name is not applied to a line headed by its entry.
UniProt P55852: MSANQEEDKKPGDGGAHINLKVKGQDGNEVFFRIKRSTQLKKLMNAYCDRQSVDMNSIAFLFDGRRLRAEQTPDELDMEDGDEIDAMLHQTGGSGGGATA
UniProt O75925: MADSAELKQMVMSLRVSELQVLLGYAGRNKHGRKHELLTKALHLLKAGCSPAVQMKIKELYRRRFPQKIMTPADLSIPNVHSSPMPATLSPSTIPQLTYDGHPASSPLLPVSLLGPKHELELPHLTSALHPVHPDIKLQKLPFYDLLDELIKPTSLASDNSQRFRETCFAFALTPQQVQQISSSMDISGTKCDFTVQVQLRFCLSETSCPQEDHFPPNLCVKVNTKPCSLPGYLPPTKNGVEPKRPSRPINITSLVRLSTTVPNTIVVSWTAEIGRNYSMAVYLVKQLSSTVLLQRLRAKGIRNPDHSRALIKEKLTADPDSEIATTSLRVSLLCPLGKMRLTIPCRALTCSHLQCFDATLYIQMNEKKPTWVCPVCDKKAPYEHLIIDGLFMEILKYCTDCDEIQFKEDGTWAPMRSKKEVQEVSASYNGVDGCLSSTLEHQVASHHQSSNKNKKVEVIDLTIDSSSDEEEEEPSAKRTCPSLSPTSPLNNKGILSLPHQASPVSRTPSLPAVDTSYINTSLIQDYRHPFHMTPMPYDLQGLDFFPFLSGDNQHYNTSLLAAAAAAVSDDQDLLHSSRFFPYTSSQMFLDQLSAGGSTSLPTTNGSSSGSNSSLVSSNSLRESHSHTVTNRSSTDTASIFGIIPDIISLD

What was measured:
[1] = target: SUMO1^ΔGG, GAL4 BD fusion (Arabidopsis thaliana) (UniProt P55852); assay: two-hybrid
[2] = target: SUMO1^ΔGG+SIM, GAL4 BD fusion (Arabidopsis thaliana) (UniProt P55852); assay: two-hybrid
[3] = target: SUMO1^ΔGG, GAL4 BD fusion (Arabidopsis thaliana) (UniProt P55852); assay: two-hybrid; remark: listed apart in the source
[4] = target: SUMO1^ΔGG+SIM, GAL4 BD fusion (Arabidopsis thaliana) (UniProt P55852); assay: two-hybrid; remark: listed apart in the source
[5] = target: COP1^SUMO (K193R), GAL4 BD fusion (Arabidopsis thaliana); assay: two-hybrid
[6] = target: SUMO1^GG, GAL4 BD fusion (Arabidopsis thaliana) (UniProt P55852); assay: two-hybrid
[7] = target: SUMO1^GG, GAL4 BD fusion (Arabidopsis thaliana) (UniProt P55852); assay: two-hybrid; remark: listed apart in the source
[8] = target: SCFP^N-tagged SUMO1^GG (Arabidopsis thaliana) (UniProt P55852); assay: split reporter
[9] = target: SUMO1^K9R+K10R, BiFC fusion (Arabidopsis thaliana) (UniProt P55852); assay: split reporter
[10] = target: SCFP^N-tagged SUMO1^ΔGG+SIM (Arabidopsis thaliana) (UniProt P55852); assay: split reporter
[11] = target: SUMO1^K9R, BiFC fusion (Arabidopsis thaliana) (UniProt P55852); assay: split reporter
[12] = target: SCFP^N-tagged SUMO1^GG+SIM (Arabidopsis thaliana) (UniProt P55852); assay: split reporter
[13] = target: SCFP^N-tagged SUMO1^ΔGG (Arabidopsis thaliana) (UniProt P55852); assay: split reporter
[14] = target: SUMO1^K10R, BiFC fusion (Arabidopsis thaliana) (UniProt P55852); assay: split reporter
[15] = target: SCFP^C-SUMO1^GG (Arabidopsis thaliana) (UniProt P55852); assay: split reporter
[16] = target: SCFP^C-SUMO1^GG (Arabidopsis thaliana) (UniProt P55852); assay: split reporter; remark: listed apart in the source

“PIAS1, GAL4 AD fusion (from UniProt O75925 1-651)” was tested, and the binding [1] was “binds” and the binding [2] was “binds”.

B1: SIZ1 (SUMO E3 ligase), GAL4 AD fusion (enzyme, UniProt Q680Q4 1-884)
chain: MDLEANCKEKLSYFRIKELKDVLTQLGLSKQGKKQELVDRILTLLSDEQAARLLSKKNTVAKEAVAKLVDDTYRKMQVSGASDLASKGQVSSDTSNLKVKGEPEDPFQPEIKVRCVCGNSLETDSMIQCEDPRCHVWQHVGCVILPDKPMDGNPPLPESFYCEICRLTRADPFWVTVAHPLSPVRLTATTIPNDGASTMQSVERTFQITRADKDLLAKPEYDVQAWCMLLNDKVLFRMQWPQYADLQVNGVPVRAINRPGGQLLGVNGRDDGPIITSCIRDGVNRISLSGGDVRIFCFGVRLVKRRTLQQVLNLIPEEGKGETFEDALARVRRCIGGGGGDDNADSDSDIEVVADFFGVNLRCPMSGSRIKVAGRFLPCVHMGCFDLDVFVELNQRSRKWQCPICLKNYSVEHVIVDPYFNRITSKMKHCDEEVTEIEVKPDGSWRVKFKRESERRELGELSQWHAPDGSLCPSAVDIKRKMEMLPVKQEGYSDGPAPLKLGIRKNRNGIWEVSKPNTNGLSSSNRQEKVGYQEKNIIPMSSSATGSGRDGDDASVNQDAIGTFDFVANGMELDSISMNVDSGYNFPDRNQSGEGGNNEVIVLSDSDDENDLVITPGPAYSGCQTDGGLTFPLNPPGIINSYNEDPHSIAGGSSGLGLFNDDDEFDTPLWSFPSETPEAPGFQLFRSDADVSGGLVGLHHHSPLNCSPEINGGYTMAPETSMASVPVVPGSTGRSEANDGLVDNPLAFGRDDPSLQIFLPTKPDASAQSGFKNQADMSNGLRSEDWISLRLGDSASGNHGDPATTNGINSSHQMSTREGSMDTTTETASLLLGMNDSRQDKAKKQRSDNPFSFPRQKRSNNEQDHQTRHRSLNKICIILCAGKN
In the case of B1, the binding [3] is reported as “binds”, the binding [4] is reported as “binds” and the binding [5] is reported as “binds”. For the same molecule, the binding [6] was “binds”.

B2: SCE1 (SUMO E2 CONJUGATING ENZYME), GAL4 AD fusion (enzyme, UniProt Q42551 1-160)
chain: MASGIARGRLAEERKSWRKNHPHGFVAKPETGQDGTVNLMVWHCTIPGKAGTDWEGGFFPLTMHFSEDYPSKPPKCKFPQGFFHPNVYPSGTVCLSILNEDYGWRPAITVKQILVGIQDLLDTPNPADPAQTDGYHLFCQDPVEYKKRVKLQSKQYPALV
B2 was tested, and the binding [7] was “binds weakly”, the binding [3] was “binds” and the binding [6] was “binds”.

B3: SCFP^C-tagged SCE1 (enzyme, UniProt Q42551 1-160)
chain: MASGIARGRLAEERKSWRKNHPHGFVAKPETGQDGTVNLMVWHCTIPGKAGTDWEGGFFPLTMHFSEDYPSKPPKCKFPQGFFHPNVYPSGTVCLSILNEDYGWRPAITVKQILVGIQDLLDTPNPADPAQTDGYHLFCQDPVEYKKRVKLQSKQYPALV
B3 was tested, and the binding [8] was “binds”, the binding [9] was “binds” and the binding [10] was “binds”. For the same molecule, the binding [11] was “binds”, the binding [12] was “binds” and the binding [13] was “binds”. For the same molecule, the binding [14] was “binds”.

B4: SCFP^C-tagged SIZ1 (enzyme, UniProt Q680Q4 1-884)
chain: MDLEANCKEKLSYFRIKELKDVLTQLGLSKQGKKQELVDRILTLLSDEQAARLLSKKNTVAKEAVAKLVDDTYRKMQVSGASDLASKGQVSSDTSNLKVKGEPEDPFQPEIKVRCVCGNSLETDSMIQCEDPRCHVWQHVGCVILPDKPMDGNPPLPESFYCEICRLTRADPFWVTVAHPLSPVRLTATTIPNDGASTMQSVERTFQITRADKDLLAKPEYDVQAWCMLLNDKVLFRMQWPQYADLQVNGVPVRAINRPGGQLLGVNGRDDGPIITSCIRDGVNRISLSGGDVRIFCFGVRLVKRRTLQQVLNLIPEEGKGETFEDALARVRRCIGGGGGDDNADSDSDIEVVADFFGVNLRCPMSGSRIKVAGRFLPCVHMGCFDLDVFVELNQRSRKWQCPICLKNYSVEHVIVDPYFNRITSKMKHCDEEVTEIEVKPDGSWRVKFKRESERRELGELSQWHAPDGSLCPSAVDIKRKMEMLPVKQEGYSDGPAPLKLGIRKNRNGIWEVSKPNTNGLSSSNRQEKVGYQEKNIIPMSSSATGSGRDGDDASVNQDAIGTFDFVANGMELDSISMNVDSGYNFPDRNQSGEGGNNEVIVLSDSDDENDLVITPGPAYSGCQTDGGLTFPLNPPGIINSYNEDPHSIAGGSSGLGLFNDDDEFDTPLWSFPSETPEAPGFQLFRSDADVSGGLVGLHHHSPLNCSPEINGGYTMAPETSMASVPVVPGSTGRSEANDGLVDNPLAFGRDDPSLQIFLPTKPDASAQSGFKNQADMSNGLRSEDWISLRLGDSASGNHGDPATTNGINSSHQMSTREGSMDTTTETASLLLGMNDSRQDKAKKQRSDNPFSFPRQKRSNNEQDHQTRHRSLNKICIILCAGKN
B4 was tested, and the binding [8] was “binds”, the binding [10] was “binds” and the binding [12] was “binds”. For the same molecule, the binding [13] was “binds”.

B5: SCFP^N-SCE1 (enzyme, UniProt Q42551 1-160)
chain: MASGIARGRLAEERKSWRKNHPHGFVAKPETGQDGTVNLMVWHCTIPGKAGTDWEGGFFPLTMHFSEDYPSKPPKCKFPQGFFHPNVYPSGTVCLSILNEDYGWRPAITVKQILVGIQDLLDTPNPADPAQTDGYHLFCQDPVEYKKRVKLQSKQYPALV
With B5 the binding [15] was “binds” and the binding [16] was “binds”.

B6: SIZ1 fused to Venus^N (enzyme, UniProt Q680Q4 1-884)
chain: MDLEANCKEKLSYFRIKELKDVLTQLGLSKQGKKQELVDRILTLLSDEQAARLLSKKNTVAKEAVAKLVDDTYRKMQVSGASDLASKGQVSSDTSNLKVKGEPEDPFQPEIKVRCVCGNSLETDSMIQCEDPRCHVWQHVGCVILPDKPMDGNPPLPESFYCEICRLTRADPFWVTVAHPLSPVRLTATTIPNDGASTMQSVERTFQITRADKDLLAKPEYDVQAWCMLLNDKVLFRMQWPQYADLQVNGVPVRAINRPGGQLLGVNGRDDGPIITSCIRDGVNRISLSGGDVRIFCFGVRLVKRRTLQQVLNLIPEEGKGETFEDALARVRRCIGGGGGDDNADSDSDIEVVADFFGVNLRCPMSGSRIKVAGRFLPCVHMGCFDLDVFVELNQRSRKWQCPICLKNYSVEHVIVDPYFNRITSKMKHCDEEVTEIEVKPDGSWRVKFKRESERRELGELSQWHAPDGSLCPSAVDIKRKMEMLPVKQEGYSDGPAPLKLGIRKNRNGIWEVSKPNTNGLSSSNRQEKVGYQEKNIIPMSSSATGSGRDGDDASVNQDAIGTFDFVANGMELDSISMNVDSGYNFPDRNQSGEGGNNEVIVLSDSDDENDLVITPGPAYSGCQTDGGLTFPLNPPGIINSYNEDPHSIAGGSSGLGLFNDDDEFDTPLWSFPSETPEAPGFQLFRSDADVSGGLVGLHHHSPLNCSPEINGGYTMAPETSMASVPVVPGSTGRSEANDGLVDNPLAFGRDDPSLQIFLPTKPDASAQSGFKNQADMSNGLRSEDWISLRLGDSASGNHGDPATTNGINSSHQMSTREGSMDTTTETASLLLGMNDSRQDKAKKQRSDNPFSFPRQKRSNNEQDHQTRHRSLNKICIILCAGKN
For B6, the binding [15] was “binds”.
